Assay results from patent publication US20020142355A1 (BAYLOR COLLEGE OF MEDICINE, published 2002).
Results are given in words; binding and its absence hold for the method and conditions named. Some entries that bind do so weakly or less than the wild type. Where a sequence is shown, tags or fusion partners need not be part of it.

Amino acid sequences for entries named in this document (tags omitted). Residues count along the entry.
UniProt P02701, residues 25-152: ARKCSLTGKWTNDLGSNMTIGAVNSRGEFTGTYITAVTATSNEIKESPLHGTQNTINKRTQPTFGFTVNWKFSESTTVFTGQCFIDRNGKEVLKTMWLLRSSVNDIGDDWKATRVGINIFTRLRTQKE

Molecular target: T1, GFP-PSTCD fusion protein (biotinylated in the cytoplasm of CHO cells) (P. shermanii) (UniProt P02904)
T1 sequence (chain, biotin on lysine 89 of PSTCD (numbering of FIG. 1)): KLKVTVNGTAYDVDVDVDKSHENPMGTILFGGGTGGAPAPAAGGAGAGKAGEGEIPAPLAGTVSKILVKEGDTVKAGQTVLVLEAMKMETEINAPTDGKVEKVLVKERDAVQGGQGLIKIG
Assay: Western blot of CHO cell lysate, avidin-HRP probe

binding: binds
Substance: avidin-HRP (from UniProt P02701 25-152)
